For experiment [1], the target named is Flag-tagged human 4-1BB N138Q/N149Q (human) (UniProt Q07011). Nature of the experiment: non-reducing SDS-PAGE with immunoblotting; cell lysates (RIPA buffer) run with and without 50 mM DTT; DTT-sensitive (disulfide-linked) dimers, trimers and oligomers; bands that exist with DTT taken as monomers. Background: A western blot detects proteins with antibodies after separation by electrophoresis.

The chains behind the UniProt entries cited, without tags or fusion partners. Where a name states a change or a piece, a line headed by the entry shows the natural chain unless it says otherwise. A line that says so, or that is headed by a name, gives the form on record, which may keep a tag or linker. Residues count along the entry.
His-tagged 4-1BB protein, native (N-glycosylated, PNGase F-untreated) (Q07011, residues 24-186): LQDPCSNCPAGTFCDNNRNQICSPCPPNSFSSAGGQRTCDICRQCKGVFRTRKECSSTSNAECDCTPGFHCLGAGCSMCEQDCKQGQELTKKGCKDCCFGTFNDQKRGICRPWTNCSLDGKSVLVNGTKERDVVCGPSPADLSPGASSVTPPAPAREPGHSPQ
Flag-tagged human 4-1BB N138Q/N149Q (Q07011, form named): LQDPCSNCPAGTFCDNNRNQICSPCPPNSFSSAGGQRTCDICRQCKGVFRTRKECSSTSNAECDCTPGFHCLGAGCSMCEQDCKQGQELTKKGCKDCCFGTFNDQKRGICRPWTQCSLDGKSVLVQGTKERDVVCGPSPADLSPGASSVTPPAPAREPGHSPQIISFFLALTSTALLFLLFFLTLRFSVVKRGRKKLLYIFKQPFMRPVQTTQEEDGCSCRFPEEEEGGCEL
UniProt P41273, residues 50-254: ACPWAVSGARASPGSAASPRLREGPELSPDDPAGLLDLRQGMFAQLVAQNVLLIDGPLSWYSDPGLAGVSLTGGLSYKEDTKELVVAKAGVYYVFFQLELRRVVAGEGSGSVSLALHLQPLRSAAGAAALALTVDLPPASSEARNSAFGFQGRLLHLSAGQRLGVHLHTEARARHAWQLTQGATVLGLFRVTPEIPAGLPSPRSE

Experiment [2] has as its target His-tagged 4-1BB protein, deglycosylated with PNGase F (human) (UniProt Q07011). Nature of the experiment: ELISA; His-tagged 4-1BB (native or deglycosylated) held on a Ni-NTA-coated 96-well plate, room temperature, 30 min; Fc-tagged 4-1BBL in PBST added for 30 min; detected with HRP anti-human Fc and TMB, OD450; both purified. For orientation: ELISA stands for enzyme-linked immunosorbent assay.

In experiment [3] the target is His-tagged 4-1BB protein, native (N-glycosylated, PNGase F-untreated) (human) (UniProt Q07011). Described as above.

No constants are given. Whether binding was seen depends on the method and setting. Some binding calls cover weakened binding; strength is not graded here.

Consider “Flag-tagged human 4-1BB N138Q/N149Q (from UniProt Q07011 24-255) (receptor)”, for which, in experiment [1], the binding entry is on record as “binds”. Regarding “human Fc-tagged 4-1BBL (from UniProt P41273 50-254) (Fc fusion)”, the binding entry in experiment [2] and in experiment [3] was “binds” throughout.

For the origin of these results see publication PMC8750214.
